Measurements as given in PubChem BioAssay AID2685 (National Center for Advancing Translational Sciences (NCATS), 2010).
The other results are listed elsewhere or left out.

Experiment: qHTS Assay for Lipid Storage Modulators in Drosophila S3 Cells
Details: BODIPY lipid droplet fluorescence, 18-24 h, measured here: cell count max response, cells fed with added oleic acid

SMILES | cell number change
O=C(OC1CN2CCC1CC2)c1ccc([N+](=O)[O-])cc1 (stereo not given) | -12.1%
CCCOc1ccc(C(=O)NCC2(N(C)C)CCCCC2)cc1OC | 9.58%
O=C(NCC1(N2CCCCC2)CCCCC1)c1cccc([N+](=O)[O-])c1 | -17.5%
CSc1ccc(C(=O)NCC2(N3CCOCC3)CCCCC2)cc1 | -7.05%
CCOC(=O)N1CCC(Nc2cccc(C)c2)CC1 | 2.49%
CCOc1ccc(C)cc1CN(CCCl)CCCl | -0.499%
Cc1cc(C)cc(N(C(=O)c2ccccc2)C2CCN(C(=O)OC(C)(C)C)CC2)c1 | -15%
N#CC1(Nc2ccccc2)CCN(Cc2ccccc2)CC1 | -0.435%
COc1ccc(C(=O)NCC2(N3CCCCC3)CCCCC2)c(OC)c1OC | 15%
CC(C)(C)OC(=O)N1CCC(N(C(=O)c2ccccc2)c2ccc(F)cc2)CC1 | -8.33%
O=C(NCC1(N2CCCCC2)CCCCC1)c1ccc(=O)[nH]c1 | 19.7%
COc1cccc(C(=O)N(c2cc(C)cc(C)c2)C2CCN(C(=O)OC(C)(C)C)CC2)c1 | -23.5%
CN1CCC(Nc2ccc(Cl)cc2)CC1 | 16.3%
CCCOc1ccc(C)cc1CN(CCCl)CCCl | -3.83%
CN1CCC(Nc2ccc(F)c(Cl)c2)CC1 | -13.8%
O=C(O)C1(Nc2ccccc2)CCN(Cc2ccccc2)CC1 | -0.508%
CC(C)(C)OC(=O)N1CCC(Nc2ccccc2)CC1 | -4.44%
O=C(NCC1(N2CCCCC2)CCCCC1)c1ccco1 | -1.24%
Cc1ccc(C(=O)NCC2(N3CCCCC3)CCCCC2)o1 | -7.59%
CN(C)C1(CNC(=O)c2cccc(C#N)c2)CCCCC1 | 6.34%
CC(C)(C)OC(=O)N1CCC(N(C(=O)c2ccccc2)c2ccc(Cl)cc2)CC1 | -18.8%
CCOC(=O)C(CC)C1=NC(C)(C)Cc2ccccc21.O=[N+]([O-])c1cc([N+](=O)[O-])c(O)c([N+](=O)[O-])c1 (stereo not given) | 10.1%
CCOC(=O)N1CCC(Nc2ccc(C)cc2)CC1 | -0.529%
N/C(=N\O)c1c(N)no[n+]1[O-] | -1.95%
O=C(NCC1(N2CCOCC2)CCCCC1)c1cc(Br)ccc1Cl | -4.8%
